Measured values from article PMC4595836.
Where a protein sequence is shown, tags need not be part of it. For part of these data: Construct, isoform or probe ends are uncertain for at least one entry.

Legend:
[1] = target: T1, ScbR (Streptomyces coelicolor A3(2) M145) (UniProt Q7AKF1); assay: EMSA; conditions: EMSA: 6-12 ng probe, ScbR 0.21-3.77 uM, ScbR2 0.207-4.15 uM; recombinant protein; protein details: His6 (pET23b-ScbR); probe letters rebuilt from the primers and the genome
T1 sequence (looked up, limits assumed): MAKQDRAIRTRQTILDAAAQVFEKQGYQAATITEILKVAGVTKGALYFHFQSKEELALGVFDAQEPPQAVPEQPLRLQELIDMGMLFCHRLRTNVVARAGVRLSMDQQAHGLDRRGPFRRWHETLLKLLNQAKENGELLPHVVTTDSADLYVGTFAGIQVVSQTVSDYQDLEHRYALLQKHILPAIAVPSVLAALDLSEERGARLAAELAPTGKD

[2] = target: T1, ScbR (Streptomyces coelicolor A3(2) M145); assay: footprint; conditions: recombinant protein; protein details: His6 (pET23b-ScbR); flanks not given
[3] = target: T2, ScbR2 (Streptomyces coelicolor A3(2) M145) (UniProt Q93S03); assay: footprint; conditions: recombinant protein; protein details: His6 (pET23b-ScbR2); flanks not given
T2 sequence (looked up, limits assumed): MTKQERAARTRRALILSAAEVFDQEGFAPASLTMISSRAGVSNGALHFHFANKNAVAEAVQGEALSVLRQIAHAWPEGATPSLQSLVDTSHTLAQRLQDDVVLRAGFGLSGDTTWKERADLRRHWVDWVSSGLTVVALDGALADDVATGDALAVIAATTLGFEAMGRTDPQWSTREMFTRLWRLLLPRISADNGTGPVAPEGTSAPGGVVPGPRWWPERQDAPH

| Sequence | binding result [1] | binding result [2] | binding result [3] |
| --- | --- | --- | --- |
| CGGGGAGCCCTGGATGTGCCGTGCCGGTGGTCTGCCGGGCGCGGCCGAAGCGGGAGCGGCTGAGCCCGTCCTGCAACGTCTCCGTGAAGCCGTCCTCCACGATGGCTCCCAGCCAGGTCATGCCGTGCTGGGGTGCGGGGGCAGAAGTGGCGCTCAACTGTCCTCCTCGATCTCGAAACAGGTCGGTCCAGGGAACATGGGATTAACAAACCTCCTCGCCGGTTTTCAATGGGAGAAGGTGTCCCCACCGTTGAACAACGTGGCGAGGTCGCCCTTGCCGTCTGTTTCGACGGCGGTGTCGAGCTGTTCGGACATGAGGGTGTCGTAGACGGGGCGTTCGACGGAGCGCAGGACGCCGATGGGGGTGTGGTGCAGGGTGTCGGGGTCGGCGAGGC (double strand) [sco6268 promoter (P6268)] | binds |  |  |
| TCCAGGGAACATGGGATTAACAAACCTCCTCGCCGGTTTTCAATGGGAGA (double strand) [sco6268] |  | binds | binds |
